# Patent publication US20220048991A1 (BIOND BIOLOGICS, published 2022)
# Amino acid sequences for entries named in this document (tags omitted). A change or cut given only in a name is not applied to a line headed by its entry.
# UniProt Q8NHL6: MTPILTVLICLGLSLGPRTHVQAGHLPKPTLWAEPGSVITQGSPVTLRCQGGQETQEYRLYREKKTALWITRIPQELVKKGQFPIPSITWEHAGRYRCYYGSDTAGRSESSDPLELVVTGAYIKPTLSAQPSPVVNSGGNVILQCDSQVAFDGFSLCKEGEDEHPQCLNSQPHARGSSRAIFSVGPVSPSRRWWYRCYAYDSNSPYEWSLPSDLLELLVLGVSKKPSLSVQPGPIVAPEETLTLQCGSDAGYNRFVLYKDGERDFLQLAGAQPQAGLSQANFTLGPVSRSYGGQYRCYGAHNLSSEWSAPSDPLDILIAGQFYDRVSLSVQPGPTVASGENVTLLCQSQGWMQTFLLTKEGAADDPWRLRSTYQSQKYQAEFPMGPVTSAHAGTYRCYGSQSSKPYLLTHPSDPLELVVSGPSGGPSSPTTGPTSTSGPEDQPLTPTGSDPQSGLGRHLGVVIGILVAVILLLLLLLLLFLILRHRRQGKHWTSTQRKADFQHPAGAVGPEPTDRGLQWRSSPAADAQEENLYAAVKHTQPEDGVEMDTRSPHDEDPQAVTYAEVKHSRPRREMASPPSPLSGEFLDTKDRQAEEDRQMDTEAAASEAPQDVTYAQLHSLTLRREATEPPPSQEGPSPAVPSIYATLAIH
# Where a chain is given by its changes, count along the chain named. In names and notes the source's numbering stands. No constants are given. Whether binding was seen depends on the method and setting. Some results given as binding are weak or reduced against the parent protein; the word gives no strength.
# B1: chimeric 19E3 (antibody, V domains shown)
# VH: QVQLQQSGAELARPGASVKLSCKASGYTFTSYGISWVKQRTGQGLEWVGEIYPGSGNSYYNEKFKGKATLTADKSSSTAYMELRSLTSEDSAVYFCARSNDGYPDYWGQGTTLTVSS
# VL: DIQMTQSSSYLSVSLGGRVTITCKASDHINNWLAWYQQKPGNAPRLLISGATSLETGVPSRFSGSGSGKDYTLSITSLQTEDVATYYCQQYWSTPWTFGGGTKLEIK
# notes: Chimera of murine 19E3; also called chimeric murine 19E3
# B2: 19E3 (hybridoma-derived, murine) (antibody, V domains shown)
# VH: B1 VH
# VL: B1 VL
# B3: 17F2 (hybridoma-derived, murine) (antibody, V domains shown)
# VH: QVQLQQSDAELVKPGASVKISCKVSGYTFTDHTIHWMKQRPEQGLEWIGYIYPRDGSTKYNEKFKGKATLTADKSSSTAYMQLNSLTSEDSAVYFCARTWDYFDYWGQGTTLTVSS
# VL: DIVLTQSPASLAVSLGQRATISCRASESVDSYGNSFMHWYQQKPGQPPKLLIYRASNLESGIPARFSGSGSRTDFTLTINPVEADDVATYYCQQSNEDPYTFGGGTKLEIK
# B4: 15G8 (hybridoma-derived, murine) (antibody, V domains shown)
# VH: DVQLQGSGPGLVKPSQSLSLTCSVTGYSITSGYYWNWIRQFPGNKLEWMGYISYDGSNNYNPSLKNRISITRDTSKNQFFLKLNSVTSEDTATYYCAHGYSYYYAMDCWGQGTSVTVSS
# VL: DIQMTQTTSSLSASLGDRVTISCRTSQDISNYLNWYQQKPDGTVKLLISYTSRLHSGVPSRFSGSGSGTDYSLTISNLEQEDIATYFCQQGNTLPTFGSGTKLEIK
# notes: also called 15G8 antibody
# B5: 15G8-34 (humanized 15G8, VH3/Vk4) (antibody, IgG4, V domains shown)
# VH: DVQLQGSGPGLVKPSETLSLTCSVTGYSITSGYYWNWIRQPPGKGLEWMGYISYDGSNNYNPSLKNRITISRDTSKNQFSLKLSSVTAADTATYYCAHGYSYYYAMDAWGQGTTVTVSS
# VL: DIQMTQSPSSLSASVGDRVTITCRTSQDISNYLNWYQQKPGKAPKLLISYTSRLHSGVPSRFSGSGSGTDYTLTISSLQPEDFATYFCQQGNTLPTFGQGTKLEIK
# notes: Humanized IgG4 (S228P, L235E), kappa
# B6: 15G8-23 (humanized 15G8, VH2/Vk3) (antibody, human IgG4 S228P, kappa, V domains shown)
# VH: B5 VH with P41F, G45K
# VL: DIQMTQSPSSLSASVGDRVTITCRTSQDISNYLNWYQQKPGKAVKLLISYTSRLHSGVPSRFSGSGSGTDYTLTISSLQPEDFATYYCQQGNTLPTFGQGTKLEIKR
# notes: as for B5
# B7: 15G8-32 (humanized 15G8, VH3/Vk2) (antibody, human IgG4 S228P, kappa, V domains shown)
# VH: B5 VH
# VL: B6 VL with Y87F
# notes: as for B5
# B8: 15G8-13 (humanized 15G8, VH1/Vk3, alanine variant A108) (antibody, human IgG4 S228P, kappa, V domains shown)
# VH: B5 VH with P41F, G45K, S84N, T114S
# VL: B6 VL
# notes: Humanized IgG4 (S228P, L235E), kappa; also called 15G8 humanized antibody; BND-22
# B9: 15G8-44 (humanized 15G8, VH4/Vk4) (antibody, IgG4, V domains shown)
# VH: B5 VH with D1Q, I68V
# VL: B5 VL
# notes: as for B5
# B10: 15G8-53 (humanized 15G8, VH5/Vk3) (antibody, human IgG4 S228P, kappa, V domains shown)
# VH: B5 VH with D1Q, S23T, M49I, I68V
# VL: B6 VL
# notes: as for B5
# B11: 15G8-54 (humanized 15G8, VH5/Vk4) (antibody, IgG4, V domains shown)
# VH: B5 VH with D1Q, S23T, M49I, I68V
# VL: B5 VL
# notes: as for B5
# B12: chimeric 15G8 antibody (antibody, V domains shown)
# VH: B4 VH
# VL: B4 VL
# notes: Chimeric form of murine 15G8
# Molecular target: human ILT2 fused to mouse CD3 zeta chain, on BW cells (human; mouse) (UniProt P24161)
# Test: flow cytometry on BW cells transfected with human ILT2; fold above background (FAB) [left panel]
row,binding,Binder
1,binds,B1

# Molecular target: human ILT2 fused to mouse CD3 zeta chain, on BW cells (human; mouse) (UniProt P24161)
# Test: flow cytometry (PE) on BW cells transfected with human ILT2
row,binding,Binder
1,binds,B2
2,binds,B3
3,binds,B4

# Molecular target: T1, biotinylated recombinant human ILT2-Fc (human, UniProt Q8NHL6 24-458, limits assumed, conjugated with biotin (sites not given))
# T1 construct: Bought (Sino Biologics); the order of the parts is therefore uncertain; also called ILT2-biotin; biotinylated ILT2; not shown: Fc portion of human IgG1
# Test: flow cytometry blocking assay: ILT2-biotin binding to HLA-G transfected A375 cells, Streptavidin-PE; antibody concentration not given
row,binding,Binder
1,binds,B4

# Molecular target: human ILT2 fused to mouse CD3 zeta chain, on BW cells (human; mouse) (UniProt P24161)
# Test: flow cytometry on BW cells transfected with human ILT2; fold above background (FAB) over secondary antibody only
row,binding,Binder
1,binds,B5
2,binds,B6
3,binds,B7
4,binds,B8
5,binds,B9
6,binds,B10
7,binds,B11

# Molecular target: human ILT2 fused to mouse CD3 zeta chain, on BW cells (human; mouse) (UniProt P24161)
# Test: flow cytometry on BW cells transfected with human ILT2
row,binding,Binder
1,binds,B1
2,binds,B5
3,binds,B6
4,binds,B7
5,binds,B8
6,binds,B9
7,binds,B10
8,binds,B11
9,binds,B12

# Molecular target: human ILT2 fused to mouse CD3 zeta chain, on BW cells (human; mouse) (UniProt P24161)
# Test: flow cytometry on BW cells transfected with ILT2
row,binding,Binder
1,binds,B2
2,binds,B3
3,binds,B4

# Molecular target: T2, recombinant ILT2 (human) (human, UniProt Q8NHL6 24-461)
# T2 construct: also called recombinant ILT2 peptide; ILT2 protein
# Test: ELISA on recombinant ILT2
row,binding,Binder
1,binds,B4

# Molecular target: human ILT2 fused to mouse CD3 zeta chain, on BW cells (human; mouse) (UniProt P24161)
# Test: flow cytometry on BW cells transfected with human ILT2; fold above background (FAB) [right panel]
row,binding,Binder
1,binds,B8
2,binds,B12
